# These are yes or no findings as the source states them, for the method shown. Binding seen in cells or lysates may run through a third protein. A yes stands for co-enrichment or nearness to the bait. Other partners may have been found. For part of these data: No binding means not detected with the bait. For part of these data: Tags and fused reporters may be left off the sequences shown.
# Amino acid sequences for entries named in this document (tags omitted). Residues count along the entry.
# UniProt Q14739: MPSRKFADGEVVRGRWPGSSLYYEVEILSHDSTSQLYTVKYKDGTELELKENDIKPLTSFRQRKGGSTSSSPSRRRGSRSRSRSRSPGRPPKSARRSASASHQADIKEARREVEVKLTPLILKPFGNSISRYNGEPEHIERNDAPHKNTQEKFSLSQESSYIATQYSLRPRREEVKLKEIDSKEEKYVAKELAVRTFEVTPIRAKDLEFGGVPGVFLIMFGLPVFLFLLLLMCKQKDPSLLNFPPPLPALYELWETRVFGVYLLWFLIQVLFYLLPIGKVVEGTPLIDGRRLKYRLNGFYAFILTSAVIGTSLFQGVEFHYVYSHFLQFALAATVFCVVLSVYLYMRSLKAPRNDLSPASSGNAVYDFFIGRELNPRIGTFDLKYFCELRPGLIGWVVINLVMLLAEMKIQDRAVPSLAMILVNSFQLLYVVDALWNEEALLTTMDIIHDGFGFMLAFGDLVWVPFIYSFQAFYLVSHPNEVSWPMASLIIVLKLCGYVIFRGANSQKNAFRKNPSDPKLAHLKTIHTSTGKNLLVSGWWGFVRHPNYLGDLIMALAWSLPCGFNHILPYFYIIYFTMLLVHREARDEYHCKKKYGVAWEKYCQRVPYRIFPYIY
# UniProt P02545, residues 1-646: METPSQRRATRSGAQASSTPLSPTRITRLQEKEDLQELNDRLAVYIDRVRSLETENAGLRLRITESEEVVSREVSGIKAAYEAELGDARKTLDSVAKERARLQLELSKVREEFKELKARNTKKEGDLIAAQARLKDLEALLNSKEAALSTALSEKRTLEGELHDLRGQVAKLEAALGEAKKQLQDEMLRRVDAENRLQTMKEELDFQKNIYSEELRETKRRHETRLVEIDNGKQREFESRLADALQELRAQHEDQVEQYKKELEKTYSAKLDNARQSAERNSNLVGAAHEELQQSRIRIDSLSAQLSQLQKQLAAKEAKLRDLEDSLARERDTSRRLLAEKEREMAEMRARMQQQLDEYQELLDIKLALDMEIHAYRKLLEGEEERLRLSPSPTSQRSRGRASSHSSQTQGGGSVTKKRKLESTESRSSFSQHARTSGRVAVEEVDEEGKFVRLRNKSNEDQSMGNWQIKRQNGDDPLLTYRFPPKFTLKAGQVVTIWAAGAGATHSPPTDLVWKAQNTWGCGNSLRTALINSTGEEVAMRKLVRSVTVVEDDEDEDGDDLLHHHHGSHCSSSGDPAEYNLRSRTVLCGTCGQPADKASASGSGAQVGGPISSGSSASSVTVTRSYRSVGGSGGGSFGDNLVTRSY
# UniProt Q8NC56: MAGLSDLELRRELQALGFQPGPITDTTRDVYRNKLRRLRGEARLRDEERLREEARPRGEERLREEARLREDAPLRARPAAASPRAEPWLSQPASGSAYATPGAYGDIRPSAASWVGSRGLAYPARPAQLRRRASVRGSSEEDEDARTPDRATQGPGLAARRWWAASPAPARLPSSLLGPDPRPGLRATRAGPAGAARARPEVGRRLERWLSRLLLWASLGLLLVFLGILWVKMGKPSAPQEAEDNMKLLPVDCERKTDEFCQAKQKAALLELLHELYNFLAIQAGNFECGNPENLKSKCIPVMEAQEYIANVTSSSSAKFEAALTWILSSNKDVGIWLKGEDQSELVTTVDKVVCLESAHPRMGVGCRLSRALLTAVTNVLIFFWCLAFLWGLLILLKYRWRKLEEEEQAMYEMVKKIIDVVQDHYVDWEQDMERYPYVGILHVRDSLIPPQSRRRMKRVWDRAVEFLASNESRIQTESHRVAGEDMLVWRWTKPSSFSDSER
# T1: LRRC59-V5-TurboID (human) (UniProt Q96AG4)
# T1 sequence: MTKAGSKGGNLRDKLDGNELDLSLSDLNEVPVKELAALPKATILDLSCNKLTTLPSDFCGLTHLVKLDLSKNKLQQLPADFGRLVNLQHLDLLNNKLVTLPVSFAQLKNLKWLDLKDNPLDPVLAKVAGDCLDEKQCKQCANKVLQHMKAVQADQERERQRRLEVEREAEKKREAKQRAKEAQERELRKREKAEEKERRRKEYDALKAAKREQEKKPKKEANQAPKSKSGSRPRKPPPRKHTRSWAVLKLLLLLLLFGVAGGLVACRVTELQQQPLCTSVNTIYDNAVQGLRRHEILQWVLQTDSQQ
# T2: CHMP4B-APEX2-mCitrine (UniProt Q9H444)
# T2 sequence: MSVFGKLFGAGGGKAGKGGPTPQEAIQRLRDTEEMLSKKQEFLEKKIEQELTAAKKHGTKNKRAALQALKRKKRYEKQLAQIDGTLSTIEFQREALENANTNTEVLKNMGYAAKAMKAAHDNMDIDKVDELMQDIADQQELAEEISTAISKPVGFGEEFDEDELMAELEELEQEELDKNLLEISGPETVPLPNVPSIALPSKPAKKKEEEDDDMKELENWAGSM
# B1: VPS4B (protein, UniProt O75351 1-444)
# chain: MSSTSPNLQKAIDLASKAAQEDKAGNYEEALQLYQHAVQYFLHVVKYEAQGDKAKQSIRAKCTEYLDRAEKLKEYLKNKEKKAQKPVKEGQPSPADEKGNDSDGEGESDDPEKKKLQNQLQGAIVIERPNVKWSDVAGLEGAKEALKEAVILPIKFPHLFTGKRTPWRGILLFGPPGTGKSYLAKAVATEANNSTFFSISSSDLVSKWLGESEKLVKNLFQLARENKPSIIFIDEIDSLCGSRSENESEAARRIKTEFLVQMQGVGVDNDGILVLGATNIPWVLDSAIRRRFEKRIYIPLPEPHARAAMFKLHLGTTQNSLTEADFRELGRKTDGYSGADISIIVRDALMQPVRKVQSATHFKKVRGPSRADPNHLVDDLLTPCSPGDPGAIEMTWMDVPGDKLLEPVVSMSDMLRSLSNTKPTVNEHDLLKLKKFTEDFGQEG
# B2: lysophosphatidylcholine acyltransferase 1 (LPCAT1) (protein, UniProt Q8NF37 1-534)
# chain: MRLRGCGPRAAPASSAGASDARLLAPPGRNPFVHELRLSALQKAQVALMTLTLFPVRLLVAAAMMLLAWPLALVASLGSAEKEPEQPPALWRKVVDFLLKAIMRTMWFAGGFHRVAVKGRQALPTEAAILTLAPHSSYFDAIPVTMTMSSIVMKAESRDIPIWGTLIQYIRPVFVSRSDQDSRRKTVEEIKRRAQSNGKWPQIMIFPEGTCTNRTCLITFKPGAFIPGAPVQPVVLRYPNKLDTITWTWQGPGALEILWLTLCQFHNQVEIEFLPVYSPSEEEKRNPALYASNVRRVMAEALGVSVTDYTFEDCQLALAEGQLRLPADTCLLEFARLVRGLGLKPEKLEKDLDRYSERARMKGGEKIGIAEFAASLEVPVSDLLEDMFSLFDESGSGEVDLRECVVALSVVCRPARTLDTIQLAFKMYGAQEDGSVGEGDLSCILKTALGVAELTVTDLFRAIDQEEKGKITFADFHRFAEMYPAFAEEYLYPDQTHFESCAETSPAPIPNGFCADFSPENSDAGRKPVRKKLD
# B3: Atlastin 3 (ATL3) (protein, UniProt Q6DD88 1-541)
# chain: MLSPQRVAAAASRGADDAMESSKPGPVQVVLVQKDQHSFELDEKALASILLQDHIRDLDVVVVSVAGAFRKGKSFILDFMLRYLYSQKESGHSNWLGDPEEPLTGFSWRGGSDPETTGIQIWSEVFTVEKPGGKKVAVVLMDTQGAFDSQSTVKDCATIFALSTMTSSVQIYNLSQNIQEDDLQQLQLFTEYGRLAMDEIFQKPFQTLMFLVRDWSFPYEYSYGLQGGMAFLDKRLQVKEHQHEEIQNVRNHIHSCFSDVTCFLLPHPGLQVATSPDFDGKLKDIAGEFKEQLQALIPYVLNPSKLMEKEINGSKVTCRGLLEYFKAYIKIYQGEDLPHPKSMLQATAEANNLAAAASAKDIYYNNMEEVCGGEKPYLSPDILEEKHCEFKQLALDHFKKTKKMGGKDFSFRYQQELEEEIKELYENFCKHNGSKNVFSTFRTPAVLFTGIVALYIASGLTGFIGLEVVAQLFNCMVGLLLIALLTWGYIRYSGQYRELGGAIDFGAAYVLEQASSHIGNSTQATVRDAVVGRPSMDKKAQ
# B4: CC2D1A (protein, UniProt Q6P1N0 1-951)
# chain: MHKRKGPPGPPGRGAAAARQLGLLVDLSPDGLMIPEDGANDEELEAEFLALVGGQPPALEKLKGKGPLPMEAIEKMASLCMRDPDEDEEEGTDEDDLEADDDLLAELNEVLGEEQKASETPPPVAQPKPEAPHPGLETTLQERLALYQTAIESARQAGDSAKMRRYDRGLKTLENLLASIRKGNAIDEADIPPPVAIGKGPASTPTYSPAPTQPAPRIASAPEPRVTLEGPSATAPASSPGLAKPQMPPGPCSPGPLAQLQSRQRDYKLAALHAKQQGDTTAAARHFRVAKSFDAVLEALSRGEPVDLSCLPPPPDQLPPDPPSPPSQPPTPATAPSTTEVPPPPRTLLEALEQRMERYQVAAAQAKSKGDQRKARMHERIVKQYQDAIRAHKAGRAVDVAELPVPPGFPPIQGLEATKPTQQSLVGVLETAMKLANQDEGPEDEEDEVPKKQNSPVAPTAQPKAPPSRTPQSGSAPTAKAPPKATSTRAQQQLAFLEGRKKQLLQAALRAKQKNDVEGAKMHLRQAKGLEPMLEASRNGLPVDITKVPPAPVNKDDFALVQRPGPGLSQEAARRYGELTKLIRQQHEMCLNHSNQFTQLGNITETTKFEKLAEDCKRSMDILKQAFVRGLPTPTARFEQRTFSVIKIFPDLSSNDMLLFIVKGINLPTPPGLSPGDLDVFVRFDFPYPNVEEAQKDKTSVIKNTDSPEFKEQFKLCINRSHRGFRRAIQTKGIKFEVVHKGGLFKTDRVLGTAQLKLDALEIACEVREILEVLDGRRPTGGRLEVMVRIREPLTAQQLETTTERWLVIDPVPAAVPTQVAGPKGKAPPVPAPARESGNRSARPLHSLSVLAFDQERLERKILALRQARRPVPPEVAQQYQDIMQRSQWQRAQLEQGGVGIRREYAAQLERQLQFYTEAARRLGNDGSRDAAKEALYRRNLVESELQRLRR
# B5: BROX (protein, UniProt Q5VW32 1-411)
# chain: MTHWFHRNPLKATAPVSFNYYGVVTGPSASKICNDLRSSRARLLELFTDLSCNPEMMKNAADSYFSLLQGFINSLDESTQESKLRYIQNFKWTDTLQGQVPSAQQDAVFELISMGFNVALWYTKYASRLAGKENITEDEAKEVHRSLKIAAGIFKHLKESHLPKLITPAEKGRDLESRLIEAYVIQCQAEAQEVTIARAIELKHAPGLIAALAYETANFYQKADHTLSSLEPAYSAKWRKYLHLKMCFYTAYAYCYHGETLLASDKCGEAIRSLQEAEKLYAKAEALCKEYGETKGPGPTVKPSGHLFFRKLGNLVKNTLEKCQRENGFIYFQKIPTEAPQLELKANYGLVEPIPFEFPPTSVQWTPETLAAFDLTKRPKDDSTKPKPEEEVKPVKEPDIKPQKDTGCYIS
# B6: FHOD1 (protein, UniProt Q9Y613 1-1164)
# chain: MAGGEDRGDGEPVSVVTVRVQYLEDTDPFACANFPEPRRAPTCSLDGALPLGAQIPAVHRLLGAPLKLEDCALQVSPSGYYLDTELSLEEQREMLEGFYEEISKGRKPTLILRTQLSVRVNAILEKLYSSSGPELRRSLFSLKQIFQEDKDLVPEFVHSEGLSCLIRVGAAADHNYQSYILRALGQLMLFVDGMLGVVAHSDTIQWLYTLCASLSRLVVKTALKLLLVFVEYSENNAPLFIRAVNSVASTTGAPPWANLVSILEEKNGADPELLVYTVTLINKTLAALPDQDSFYDVTDALEQQGMEALVQRHLGTAGTDVDLRTQLVLYENALKLEDGDIEEAPGAGGRRERRKPSSEEGKRSRRSLEGGGCPARAPEPGPTGPASPVGPTSSTGPALLTGPASSPVGPPSGLQASVNLFPTISVAPSADTSSERSIYKARFLENVAAAETEKQVALAQGRAETLAGAMPNEAGGHPDARQLWDSPETAPAARTPQSPAPCVLLRAQRSLAPEPKEPLIPASPKAEPIWELPTRAPRLSIGDLDFSDLGEDEDQDMLNVESVEAGKDIPAPSPPLPLLSGVPPPPPLPPPPPIKGPFPPPPPLPLAAPLPHSVPDSSALPTKRKTVKLFWRELKLAGGHGVSASRFGPCATLWASLDPVSVDTARLEHLFESRAKEVLPSKKAGEGRRTMTTVLDPKRSNAINIGLTTLPPVHVIKAALLNFDEFAVSKDGIEKLLTMMPTEEERQKIEEAQLANPDIPLGPAENFLMTLASIGGLAARLQLWAFKLDYDSMEREIAEPLFDLKVGMEQLVQNATFRCILATLLAVGNFLNGSQSSGFELSYLEKVSEVKDTVRRQSLLHHLCSLVLQTRPESSDLYSEIPALTRCAKVDFEQLTENLGQLERRSRAAEESLRSLAKHELAPALRARLTHFLDQCARRVAMLRIVHRRVCNRFHAFLLYLGYTPQAAREVRIMQFCHTLREFALEYRTCRERVLQQQQKQATYRERNKTRGRMITETEKFSGVAGEAPSNPSVPVAVSSGPGRGDADSHASMKSLLTSRPEDTTHNRRSRGMVQSSSPIMPTVGPSTASPEEPPGSSLPSDTSDEIMDLLVQSVTKSSPRALAARERKRSRGNRKSLRRTLKSGLGDDLVQALGLSKGPGLEV
# Target: T1, LRRC59-V5-TurboID (human)
# Experiment: proximity labelling; LRRC59-TurboID (TurboID facing the ER lumen) in RPE1 cells; 100 µM biotin 30 minutes at 37 °C; RIPA lysis, streptavidin magnetic beads, immunoblotting
row,binding,Molecule
1,no binding,LBR (from UniProt Q14739 1-615)
2,no binding,Lamin A/C (from UniProt P02545 1-646)
3,binds,endogenous LEMD2 (from UniProt Q8NC56 1-503)

# Target: T2, CHMP4B-APEX2-mCitrine
# Experiment: proximity labelling; APEX2 fusions of LEMD2 or CHMP4B in RPE1 cells after DOX induction of CHMP7^WT (12 h), CHMP7^NLS (6 h) or CHMP7^NES* (3, 6, 9 h); 500 μM biotin-phenol 3 h, 2 mM H2O2 2 min; RIPA lysis, streptavidin magnetic beads, label-free quantitative LC-MS/MS; compared with parental cells without APEX2 fusions
row,binding,Molecule
1,binds,B1
2,binds,B2
3,binds,B3
4,binds,B4
5,binds,B5
6,binds,B6

# Target: LEMD2-APEX2-mCitrine (UniProt Q8NC56)
# Experiment: as above
row,binding,Molecule
1,binds,B1
2,binds,B2
3,binds,B3
4,binds,B4
5,binds,B5
6,binds,B6
